Data source: PubChem BioAssay AID1508588 (Peter MacCallum Cancer Centre, 2020)

- Assay: 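Which gene losses make BRAF-mutant melanoma cells more responsive to vemurafenib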 (primary screen)
- Cell system: human WM266.4 melanoma cells (BRAF V600 mutant)
- Reagent: siRNA pool against human genes, 40 nM
- Duration: 96 h from transfection to read-out
- Challenge: vemurafenib 300 nM (about IC25), added 48 h after transfection, for 48 h; comparison arm got DMSO vehicle only
- Read-out: 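Cell gain (DAPI nuclei at end minus before drug, mean of two replicates) and medium lactate by absorbance per cell, both as ratio to non-targeting siRNA, also grouped into fold-change classes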
- Reading the numbers: cell gain with vemurafenib: higher = more cell gain than with non-targeting siRNA; lactate per cell with vemurafenib: higher = more lactate made per cell
- Rule for the call: 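Enhancement is called by pairing each knock-down's vehicle-arm and drug-arm fold-change classes for viability or glycolysis; which class combinations qualify is not given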
- Meaning of the calls: active = enhances vemurafenib effect; inactive = no enhancement seen
The whole screen tested about 18,000 reagents; below is a random part of them. 790 of all reagents (4.4%) were called active. 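Calls rest on a combination of fold-change classes in drug and vehicle arms, not all shown here.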 Reagent sequences are not shown.

target | cell gain with vemurafenib | lactate per cell with vemurafenib | outcome
PRXL2A | 0.52 | 0.97 | inactive
SBDS | 0.92 | 0.93 | inactive
LINC03124 | 1.01 | 0.89 | inactive
ANKMY1 | 0.44 | 0.91 | inactive
ABCC8 | 0.26 | 0.21 | inactive
SPIB | -0.05 | 3.39 | inactive
PCBD2 | 0.59 | 0.96 | inactive
TXNL1 | 0.87 | 0.66 | active
GPN3 | 0.63 | 1.22 | inactive
OR1Q1 | 1.35 | 0.55 | inactive
HAND1 | 0.85 | 0.94 | inactive
SRRT | 1.07 | 0.96 | inactive
ID2 | 0.61 | 1.32 | inactive
ATP6V1E1 | 0.74 | 0.66 | inactive
F2RL2 | 0.76 | 0.58 | inactive
TTI2 | 0.81 | 1.22 | inactive
ADCK5 | 0.5 | 1.69 | inactive
RRN3 | 0.74 | 0.8 | inactive
MSANTD3 | 0.79 | 0.4 | inactive
C19orf53 | 0.89 | 0.9 | inactive
DTX3 | 0.98 | 0.9 | inactive
DYRK1B | 0.45 | 1.2 | inactive
UGT3A1 | 0.74 | 1.48 | inactive
PPP1R12B | 0.2 | 1.12 | inactive
NR6A1 | 0.44 | 1.15 | inactive
GSTA1 | 0.37 | 1.12 | inactive
PRPS1L1 | 0.59 | 0.88 | inactive
TOR1A | 0.64 | 1.2 | inactive
COX4I1 | 0.84 | 1.47 | inactive
CDK2 | 0.38 | 0.57 | inactive
STMN4 | 0.21 | 1.03 | inactive
ZNF573 | 0.32 | 1.46 | inactive
RSRC1 | 0.09 | 0.74 | inactive
TXNDC16 | 0.86 | 0.84 | inactive
TCEAL9 | 1.08 | 0.81 | inactive
KCNJ8 | 0.54 | 1.81 | inactive
DERL1 | 0.69 | 0.42 | inactive
SLITRK6 | 0.88 | 0.88 | inactive
PLVAP | 0.45 | 1.59 | inactive
TADA2A | 0.75 | 1.1 | inactive
EPAS1 | 0.59 | 0.55 | inactive
RHAG | 0.37 | 0.49 | active
BTBD3 | 0.99 | 0.54 | inactive
ENPP5 | 0.3 | 0.72 | inactive
MEP1A | 0.8 | 0.24 | inactive
H2AC11 | 0.83 | 0.59 | inactive
MRPS22 | 0.79 | 0.66 | inactive
TKTL1 | 0.36 | 0.82 | inactive
MYOC | 0.59 | 1.29 | inactive
PCID2 | 0.95 | 0.66 | inactive
GPR180 | 0.41 | 1.04 | inactive
ZAN | 1 | 1.48 | inactive
FAHD1 | 0.66 | 1.15 | inactive
KMT5C | 0.95 | 0.6 | inactive
CHRNA9 | 0.75 | 1.28 | inactive
NEK9 | 0.54 | 1.16 | inactive
CAPRIN2 | 0.35 | 1.12 | inactive
CDCA7 | 0.57 | 1.4 | inactive
PRH1 | 0.69 | 1.72 | inactive
NOP56 | 0.39 | 1.29 | inactive
AGO3 | 1.11 | 1.09 | inactive
OR4C45 | 1 | 0.54 | inactive
SIGLEC10 | 0.85 | 0.62 | inactive
CCDC146 | 0.79 | 0.97 | inactive
VPS13D | 0.82 | 0.52 | inactive
SH3GLB2 | 0.54 | 1.82 | inactive
SLC38A10 | 0.08 | 0.44 | active
SLC43A3 | 0.88 | 0.82 | inactive
PITPNM1 | 0.71 | 0.74 | inactive
TMEM187 | 0.58 | 1.15 | inactive
GTF3C6 | 0.41 | 1.59 | inactive
RTP1 | 0.14 | 0.65 | inactive
RCN1 | 0.9 | 0.43 | inactive
PRMT6 | 0.82 | 0.58 | inactive
IGFL4 | 0.73 | 0.72 | inactive
RTL3 | 0.04 | 4.04 | inactive
GLIS3 | 0.23 | 0.22 | inactive
F11 | 0.49 | 0.86 | inactive
AMBN | 0.57 | 1.32 | inactive
DPH5 | 0.72 | 0.55 | inactive
SLC5A12 | 0.75 | 0.9 | inactive
ZDHHC2 | 0.58 | 0.98 | inactive
SLC22A8 | 0.48 | 1.1 | inactive
SPACA9 | 0.8 | 1.15 | inactive
FAM217B | 0.51 | 0.13 | active
SPRR3 | 0.4 | 0.82 | inactive
SLC26A5 | 0.11 | 1.38 | inactive
EIF4H | 0.52 | 0.89 | inactive
SGCD | 0.63 | 0.84 | inactive
DEPDC4 | 0.76 | 0.82 | inactive
ALK | 0.09 | 1.12 | active
ALOX15B | 0.11 | 1.88 | inactive
C6orf89 | 0.3 | 0.31 | inactive
TAF12 | 0.77 | 0.4 | inactive
ATXN10 | 0.43 | 1.58 | inactive
LMNTD2 | 0.67 | 0.99 | inactive
GNG13 | 0.37 | 0.76 | inactive
PAPSS2 | 0.55 | 0.36 | active
PSMD11 | 0.18 | 1 | inactive
IPPK | 0.48 | 1.48 | inactive
FCGR3B | 0.72 | 0.7 | inactive
ANKRD34B | 0.97 | 0.28 | inactive
CCDC122 | 0.2 | 2.08 | inactive
PROSER3 | 0.31 | 0.69 | inactive
ADRA1D | 0.33 | 2.4 | inactive
TRIB2 | 0.1 | 1.44 | inactive
TYK2 | 0.7 | 0.47 | active

Records listed so far marked active, once more:
target | cell gain with vemurafenib | lactate per cell with vemurafenib | outcome
TXNL1 | 0.87 | 0.66 | active
RHAG | 0.37 | 0.49 | active
SLC38A10 | 0.08 | 0.44 | active
FAM217B | 0.51 | 0.13 | active
ALK | 0.09 | 1.12 | active
PAPSS2 | 0.55 | 0.36 | active
TYK2 | 0.7 | 0.47 | active
